Values from PubChem BioAssay AID1259425 (University of Nebraska Medical Center, 2018)

Purpose: 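Find knockdowns that reproduce the gene expression pattern seen when KSR1 is lost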 (primary screen)
Cells: HCT116 human colon cancer cells
Reagent: siRNA pool against human genes, 50 nM siRNA
Read-out: 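mRNA of six signature genes measured together by branched-DNA assay after 50 nM siRNA pool, blank removed, divided by geometric mean of two housekeeping genes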
Direction: BNIP3L mRNA: higher = more BNIP3L transcript after knockdown; NDRG1 mRNA: higher = more NDRG1 transcript after knockdown; BNIP3 mRNA: higher = more BNIP3 transcript after knockdown; ALDOC mRNA: higher = more ALDOC transcript after knockdown; ACSL5 mRNA: higher = more ACSL5 transcript after knockdown
This is a random part of about 14,000 reagents tested. Reagents against one gene are numbered here. The record does not give: the time to read-out.

Gene | pool no. | BNIP3L mRNA, set 1 | NDRG1 mRNA, set 1 | BNIP3 mRNA, set 1 | ALDOC mRNA, set 1 | ACSL5 mRNA, set 1
OSGIN2 | 1 | 0.0573 | 0.0806 | 0.268 | 0.0244 | 0.133
PRH1 | 1 | 0.157 | 0.477 | 0.39 | 0.0136 | 0.229
ITIH4 | 1 | 0.104 | 0.125 | 0.266 | 0.0392 | 0.121
CYSLTR1 | 1 | 0.197 | 0.358 | 0.524 | 0.0574 | 0.131
COPE | 1 | 0.129 | 0.174 | 0.235 | 0.021 | 0.0893
BCL6B | 1 | 0.138 | 0.136 | 0.238 | 0.0244 | 0.283
TGFB2 | 1 | 0.0792 | 0.103 | 0.258 | 0.0251 | 0.15
F7 | 1 | 0.44 | 1.8 | 0.487 | 0.0659 | 0.314
KCNB1 | 1 | 0.148 | 0.134 | 0.209 | 0.0622 | 0.112
SF3A1 | 1 | 0.0352 | 0.224 | 0.139 | 0.00941 | 0.0498
APLP2 | 1 | 0.0773 | 0.0651 | 0.314 | -0.00152 | 0.109
AGBL5 | 1 | 0.187 | 0.0381 | 0.286 | 0.0231 | 0.138
TBCD | 1 | 0.0968 | 0.164 | 0.206 | 0.0486 | 0.0933
WAS | 1 | 0.12 | 0.0897 | 0.273 | 0.0408 | 0.141
TRIM29 | 1 | 0.15 | 0.23 | 0.469 | 0.0238 | 0.295
TSFM | 1 | 0.123 | 0.417 | 0.211 | 0.0274 | 0.122

An excerpt of the results above:
Gene | pool no. | BNIP3L mRNA, set 1 | NDRG1 mRNA, set 1 | BNIP3 mRNA, set 1 | ALDOC mRNA, set 1 | ACSL5 mRNA, set 1
AGBL5 | 1 | 0.187 | 0.0381 | 0.286 | 0.0231 | 0.138
TBCD | 1 | 0.0968 | 0.164 | 0.206 | 0.0486 | 0.0933
WAS | 1 | 0.12 | 0.0897 | 0.273 | 0.0408 | 0.141

Additional reagents:
Gene | pool no. | BNIP3L mRNA, set 1 | NDRG1 mRNA, set 1 | BNIP3 mRNA, set 1 | ALDOC mRNA, set 1 | ACSL5 mRNA, set 1
CNNM3 | 1 | 0.087 | 0.049 | 0.193 | 0.00895 | 0.0896
IGHG4 | 1 | 0.0953 | 0.803 | 0.392 | 0.0492 | 0.128
RBBP7 | 1 | 0.0859 | 0.151 | 0.317 | 0.0183 | 0.316
DBH | 1 | 0.0915 | 0.252 | 0.32 | 0.0531 | 0.158
SMAD3 | 1 | 0.151 | 0.156 | 0.335 | 0.00842 | 0.321
SMAD3 | 2 | 0.0362 | 0.0904 | 0.372 | 0.0189 | 0.11
NLN | 1 | 0.105 | 0.409 | 0.307 | 0.0249 | 0.158
CHAT | 1 | 0.132 | 0.0964 | 0.394 | 0.0145 | 0.117
IVNS1ABP | 1 | 0.12 | 0.0806 | 0.565 | -0.00425 | 0.293
MYO5C | 1 | 0.071 | 0.122 | 0.317 | 0.00794 | 0.148
ZMYM2 | 1 | 0.0749 | 0.171 | 0.229 | 0.0079 | 0.231
PMPCA | 1 | 0.0711 | 0.331 | 0.254 | 0.00931 | 0.273
TP53 | 1 | 0.106 | 0.0945 | 0.299 | 0.0136 | 0.128
DUSP16 | 1 | 0.0569 | 0.135 | 0.29 | 0.0286 | 0.217
C7orf25 | 1 | 0.0457 | 0.266 | 0.129 | 0.0504 | 0.282
NME8 | 1 | 0.0763 | 0.0833 | 0.306 | 0.0133 | 0.145
FZD9 | 1 | 0.207 | 1.04 | 0.448 | 0.0442 | 0.173
FOXE3 | 1 | 0.197 | 0.0827 | 0.499 | 0.00916 | 0.0794
SNRNP200 | 1 | 0.0864 | 0.252 | 0.244 | 0.0488 | 0.165
CLIC6 | 1 | 0.0943 | 0.152 | 0.251 | 0.0308 | 0.176
ST3GAL5 | 1 | 0.112 | 0.149 | 0.267 | 0.0311 | 0.112
HCN4 | 1 | 0.1 | 0.371 | 0.405 | 0.0326 | 0.259
PSMD7 | 1 | 0.143 | 0.248 | 0.411 | 0.0162 | 0.263
AGK | 1 | 0.0758 | 0.0412 | 0.319 | 0.00635 | 0.287
MIER2 | 1 | 0.124 | 0.585 | 0.324 | 0.0535 | 0.204
DUSP2 | 1 | 0.175 | 0.148 | 0.54 | 0.00619 | 0.375
ISOC1 | 1 | 0.109 | 0.106 | 0.326 | 0.0118 | 0.264
PCDHA4 | 1 | 0.0557 | 0.0702 | 0.221 | 0.0188 | 0.101
BHLHE22 | 1 | 0.124 | 0.357 | 0.375 | 0.0267 | 0.184
HIPK2 | 1 | 0.107 | 0.233 | 0.269 | 0.0118 | 0.127
NPAS1 | 1 | 0.0556 | 0.209 | 0.155 | 0.0254 | 0.124
CHD1 | 1 | 0.116 | 0.12 | 0.156 | 0.0207 | 0.194
MTMR10 | 1 | 0.0861 | 0.297 | 0.31 | 0.0412 | 0.152
SLC7A10 | 1 | 0.0862 | 0.131 | 0.243 | 0.0165 | 0.143
